PubChem BioAssay AID1159584 | Peter MacCallum Cancer Centre | 2016
In all, the deposit lists about 18,000 reagents; below is a part drawn at random. Not stated in the record: the amount of reagent, the time to read-out.

Purpose: 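Genes that CDH1-null MCF10A cells selectively depend on to survive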 (primary screen)
Cells: human MCF10A breast epithelial cells, parental and CDH1-null
Reagent: siRNA against human genes
Read-out: 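Cell viability by CellTiter-Glo ATP luminescence, each line scaled to the mean of mock wells across plates, then CDH1-null over parental ratio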
Reading the numbers: CDH1-null / parental viability ratio: higher = CDH1-null cells survive relatively better than parental; CDH1-null viability vs mock: higher = more viable CDH1-null cells; parental viability vs mock: higher = more viable parental cells

Target gene | CDH1-null / parental viability ratio | CDH1-null viability vs mock (fraction of mock) | parental viability vs mock (fraction of mock)
UNC13D | 0.97 | 0.88 | 0.91
EHD1 | 1.02 | 0.52 | 0.51
KCNV1 | 0.96 | 0.94 | 0.98
ZMAT2 | 0.9 | 0.45 | 0.5
ZPBP | 0.77 | 0.54 | 0.7
PROCR | 0.8 | 0.61 | 0.76
GSK3B | 0.8 | 0.78 | 0.97
COG5 | 1.18 | 0.79 | 0.67
CYB561D2 | 0.75 | 0.45 | 0.6
CHCHD2 | 0.72 | 0.58 | 0.8
BTK | 1.2 | 0.84 | 0.7
SERPINA12 | 0.94 | 1.02 | 1.09
NUCB2 | 1.21 | 0.63 | 0.52
SLU7 | 1.07 | 0.29 | 0.27
ISL2 | 1.21 | 0.75 | 0.62
SIGLEC1 | 0.91 | 0.62 | 0.68
B3GLCT | 1.24 | 0.94 | 0.76
ASPA | 1 | 0.86 | 0.86
ZNF408 | 0.87 | 0.59 | 0.68

4 entries already listed, ordered by “CDH1-null viability vs mock (fraction of mock)”, lowest first.
Target gene | CDH1-null / parental viability ratio | CDH1-null viability vs mock (fraction of mock) | parental viability vs mock (fraction of mock)
ZMAT2 | 0.9 | 0.45 | 0.5
EHD1 | 1.02 | 0.52 | 0.51
ZPBP | 0.77 | 0.54 | 0.7
KCNV1 | 0.96 | 0.94 | 0.98

Additional records follow.
Target gene | CDH1-null / parental viability ratio | CDH1-null viability vs mock (fraction of mock) | parental viability vs mock (fraction of mock)
RTN1 | 1.25 | 0.65 | 0.52
DIPK1C | 0.96 | 0.73 | 0.76
SPINK4 | 1.18 | 0.97 | 0.82
SLC35B2 | 0.84 | 0.76 | 0.9
CIRBP | 0.56 | 0.46 | 0.82
WIF1 | 0.93 | 0.9 | 0.97
HOXA13 | 1.12 | 0.96 | 0.86
ITGA11 | 0.95 | 0.63 | 0.66
HBD | 0.95 | 0.81 | 0.85
CDCA7L | 1.19 | 0.95 | 0.8
UGT2A1 | 0.91 | 0.86 | 0.94
MRPL57 | 1.28 | 1 | 0.78
PCDH12 | 0.9 | 0.65 | 0.72
FGF6 | 0.98 | 0.94 | 0.96
RASL11B | 0.8 | 0.7 | 0.87
PHF21A | 0.96 | 0.96 | 1
PCP4 | 1.53 | 0.92 | 0.6
STARD3NL | 0.96 | 1.1 | 1.15
DNASE1L2 | 1.02 | 0.88 | 0.86
BAIAP2L2 | 0.96 | 0.78 | 0.81
TLE3 | 0.78 | 0.53 | 0.68
KRT80 | 1.19 | 0.76 | 0.64
CALCB | 1.63 | 1.14 | 0.7
MFAP5 | 0.88 | 0.53 | 0.6
OSER1 | 1.08 | 0.4 | 0.37
ADAMTS10 | 1.03 | 0.66 | 0.64
PADI6 | 0.96 | 0.92 | 0.96
